# Measurements: PMC7862700
# The entries are a selection whose mix differs from that of the whole data set. At the low end of the ranking the order means little.
# Target: T1, SPIC (UniProt Q8N5J4)
# T1 sequence: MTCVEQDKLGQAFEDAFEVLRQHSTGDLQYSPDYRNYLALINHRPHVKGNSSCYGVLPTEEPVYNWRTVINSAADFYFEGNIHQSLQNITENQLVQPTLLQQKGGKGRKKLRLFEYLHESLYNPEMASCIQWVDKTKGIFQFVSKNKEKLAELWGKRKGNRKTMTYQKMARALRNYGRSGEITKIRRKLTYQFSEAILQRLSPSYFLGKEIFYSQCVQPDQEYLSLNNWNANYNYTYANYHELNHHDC
# Experiment: DAPPL (digital affinity profiling via proximity ligation, sequencing)
# Conditions: 10 mM Tris-HCl pH 7.5, 50 mM NaCl, 1 mM DTT, 4% glycerol, room temperature, 30 min; GST-TFs on glutathione beads, 16-mer random dsDNA library, 0.1% …; high values mean tight binding; double strand, one strand shown; scale: fold enrichment (6-mer frequency, TF over GST control)
row,Sequence,binding signal
1,CACATG,0.98
2,CAGCGC,0.863
3,TATGCA,1.24
4,CCTTTG,1.38
5,AGCAAA,0.905
6,CTTCAC,1.57
7,CTTGTA,1.22
8,ACCATT,0.952
9,TTAGCT,1.16
10,TCATAT,1.13
11,TACCCC,0.95
12,ACTATA,1.26
13,TAGATC,0.937
14,AACCGG,1.4
15,TGTCTT,1.39
16,AATCTG,1.52
17,GGATGT,1.41
18,GATCTA,1.01
19,GCGTCC,1.23
20,TACCTA,1.19

# Part of the list above, bar-delimited.
row | Sequence | binding signal
1 | CACATG | 0.98
2 | CAGCGC | 0.863

# Next entries.

row,Sequence,binding signal
1,TGACAA,1.11
2,TAATAC,1.12
3,CTAGTA,0.953
4,TTCTAC,1.7
5,GTTGTT,0.988
6,AATGAC,1.36
7,CATATC,1.23
8,AACCTG,1.04
9,ACGTAA,1.12
10,GGTTTG,1.27
11,CATTGT,0.933
12,GTACCT,1.44
13,TACAAA,0.922
14,ACTATG,1.37
15,TCAAAG,0.955
16,GCTACA,1.33
17,TCCCTG,1.38
18,TGCGCC,0.85
19,TCAGTT,0.954
